This passage reports Ki results from patent US6281214A, “Biphenyl derivatives” (Eisai Co., Ltd, priority 1994, dated 2001).

The test addresses adrenergic α1 receptor. The test can be described thus: adrenergic α1 receptor binding test ([3H] Prazosin Binding Test). The arrangement: species or system SD rats. To be noted: 1 nM [3H] Prazosin, rat cortex, room temperature, 60 minutes. The procedure: The compounds of the present invention were subjected to each of serotonin S2 receptor binding test, dopamine D2 receptor binding test and adrenergic α1 receptor binding test.
The following reagents were used in this test.
These reagents and samples were each dissolved in 10% ethanol before use. Among them, water-insoluble compounds were each dissolved in ethanol and the obtained solution was diluted with distilled water to an ethanol concentration of 10%. Further, Methylsergide maleate was used in a state dissolved in distilled water.
SD rats aged 6 to 8 weeks were used.
SD rats were each slaughtered with a guillotine to extirpate its cerebrum. The cortex and corpus striatum were separated from the cerebrum. The former was used in serotonin S2 receptor binding test and adrenergic α1, receptor binding test, while the latter was used in dopamine D2 receptor binding test. […]
Each IC50 value was calculated by the probit method and each Ki value was determined by the following formula: [formula]
In the above formula, C represents the concentration of radioligand, and Kd represents the affinity of radioligand for the receptor as determined by the Scatchard analysis. […]
This test was conducted in the same manner as that of the binding test of [^3 H] […] Prazosin at room temperature for 60 minutes and that the binding detected in the presence of 10 μl of Phentolamine was regarded as nonspecific binding.

Usually Ki stands for the equilibrium dissociation constant of an inhibitor or competing ligand from its target. A low value points to a stronger hold on the target.

Regarding `Cc1nc2n(c(=O)c1CCN1CCC(c3noc4cc(F)ccc34)CC1)CCCC2` [Risperidone, risperidone], the Ki is 2.94 nM.
